# Source: PubChem BioAssay (EPA / NIEHS)
# Amino acid sequences for entries named in this document (tags omitted). A change or cut given only in a name is not applied to a line headed by its entry.
# UniProt Q96RI1: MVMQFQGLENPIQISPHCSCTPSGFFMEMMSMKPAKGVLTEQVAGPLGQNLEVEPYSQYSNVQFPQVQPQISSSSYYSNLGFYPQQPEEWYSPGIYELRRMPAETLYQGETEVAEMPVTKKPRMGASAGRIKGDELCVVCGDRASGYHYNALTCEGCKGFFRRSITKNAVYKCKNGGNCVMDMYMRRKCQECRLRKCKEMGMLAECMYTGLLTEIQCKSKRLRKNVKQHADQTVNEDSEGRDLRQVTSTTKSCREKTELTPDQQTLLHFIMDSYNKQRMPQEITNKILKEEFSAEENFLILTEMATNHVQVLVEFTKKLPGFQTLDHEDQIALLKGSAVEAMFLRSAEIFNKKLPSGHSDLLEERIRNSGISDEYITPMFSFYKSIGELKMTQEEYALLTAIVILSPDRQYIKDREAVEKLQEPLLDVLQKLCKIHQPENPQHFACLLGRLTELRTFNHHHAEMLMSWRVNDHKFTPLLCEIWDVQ
# UniProt P31645, whole entry, looked up: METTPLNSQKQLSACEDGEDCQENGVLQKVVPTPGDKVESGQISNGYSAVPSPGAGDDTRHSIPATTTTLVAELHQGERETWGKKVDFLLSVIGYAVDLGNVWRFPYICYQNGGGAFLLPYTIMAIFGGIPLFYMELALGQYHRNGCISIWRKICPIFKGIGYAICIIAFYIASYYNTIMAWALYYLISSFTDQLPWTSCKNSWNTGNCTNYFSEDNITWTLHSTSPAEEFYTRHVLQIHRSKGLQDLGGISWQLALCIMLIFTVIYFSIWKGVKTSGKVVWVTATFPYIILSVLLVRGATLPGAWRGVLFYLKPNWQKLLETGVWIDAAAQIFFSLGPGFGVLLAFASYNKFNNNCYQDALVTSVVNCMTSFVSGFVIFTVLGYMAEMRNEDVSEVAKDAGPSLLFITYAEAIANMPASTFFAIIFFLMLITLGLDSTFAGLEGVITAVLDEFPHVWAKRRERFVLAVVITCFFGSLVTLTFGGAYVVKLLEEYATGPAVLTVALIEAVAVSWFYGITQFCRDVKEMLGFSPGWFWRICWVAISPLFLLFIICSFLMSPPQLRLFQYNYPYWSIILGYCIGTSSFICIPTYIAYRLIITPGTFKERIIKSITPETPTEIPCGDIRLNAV
# UniProt P31652, whole entry, looked up: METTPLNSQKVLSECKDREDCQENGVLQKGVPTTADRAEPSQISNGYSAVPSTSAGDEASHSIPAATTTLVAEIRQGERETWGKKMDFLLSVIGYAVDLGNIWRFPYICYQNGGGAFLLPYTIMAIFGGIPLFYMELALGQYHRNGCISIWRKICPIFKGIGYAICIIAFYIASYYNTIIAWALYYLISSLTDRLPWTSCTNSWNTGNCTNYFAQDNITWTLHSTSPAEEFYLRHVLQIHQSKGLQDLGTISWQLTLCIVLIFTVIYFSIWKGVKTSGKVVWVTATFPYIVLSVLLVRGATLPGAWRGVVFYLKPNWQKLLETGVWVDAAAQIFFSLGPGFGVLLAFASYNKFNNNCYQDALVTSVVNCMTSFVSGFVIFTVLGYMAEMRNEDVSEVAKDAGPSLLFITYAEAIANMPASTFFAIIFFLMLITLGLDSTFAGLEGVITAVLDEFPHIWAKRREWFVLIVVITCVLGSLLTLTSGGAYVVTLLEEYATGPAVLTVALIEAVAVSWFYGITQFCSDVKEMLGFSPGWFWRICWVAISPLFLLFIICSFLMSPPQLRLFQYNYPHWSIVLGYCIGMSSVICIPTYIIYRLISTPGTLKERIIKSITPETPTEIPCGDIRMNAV
# UniProt P37231: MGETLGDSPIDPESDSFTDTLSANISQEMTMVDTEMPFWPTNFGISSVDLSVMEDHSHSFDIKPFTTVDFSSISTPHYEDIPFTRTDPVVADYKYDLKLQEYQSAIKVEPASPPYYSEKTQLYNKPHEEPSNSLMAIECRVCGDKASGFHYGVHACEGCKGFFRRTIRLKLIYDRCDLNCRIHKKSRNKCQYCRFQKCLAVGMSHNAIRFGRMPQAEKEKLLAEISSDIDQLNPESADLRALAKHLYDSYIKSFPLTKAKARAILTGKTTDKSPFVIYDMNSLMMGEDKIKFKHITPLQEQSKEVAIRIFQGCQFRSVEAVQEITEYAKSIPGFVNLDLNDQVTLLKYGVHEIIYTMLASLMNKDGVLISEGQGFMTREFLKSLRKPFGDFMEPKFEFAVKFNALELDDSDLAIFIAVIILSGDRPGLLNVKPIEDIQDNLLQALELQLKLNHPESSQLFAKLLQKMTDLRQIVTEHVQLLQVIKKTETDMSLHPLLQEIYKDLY
# UniProt P43140: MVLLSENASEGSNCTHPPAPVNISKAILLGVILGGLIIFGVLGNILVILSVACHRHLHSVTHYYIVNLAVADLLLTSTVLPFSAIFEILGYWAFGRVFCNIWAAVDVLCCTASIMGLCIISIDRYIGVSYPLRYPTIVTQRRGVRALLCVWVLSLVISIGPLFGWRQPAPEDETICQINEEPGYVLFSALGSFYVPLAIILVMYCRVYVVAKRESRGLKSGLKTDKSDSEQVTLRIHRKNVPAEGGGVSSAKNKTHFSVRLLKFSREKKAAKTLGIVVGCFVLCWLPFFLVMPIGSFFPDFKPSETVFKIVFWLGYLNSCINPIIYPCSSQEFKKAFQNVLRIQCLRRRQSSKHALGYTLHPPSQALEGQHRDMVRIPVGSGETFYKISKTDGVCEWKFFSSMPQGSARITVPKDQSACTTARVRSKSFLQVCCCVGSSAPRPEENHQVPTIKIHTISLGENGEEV
# UniProt P11712, whole entry, looked up: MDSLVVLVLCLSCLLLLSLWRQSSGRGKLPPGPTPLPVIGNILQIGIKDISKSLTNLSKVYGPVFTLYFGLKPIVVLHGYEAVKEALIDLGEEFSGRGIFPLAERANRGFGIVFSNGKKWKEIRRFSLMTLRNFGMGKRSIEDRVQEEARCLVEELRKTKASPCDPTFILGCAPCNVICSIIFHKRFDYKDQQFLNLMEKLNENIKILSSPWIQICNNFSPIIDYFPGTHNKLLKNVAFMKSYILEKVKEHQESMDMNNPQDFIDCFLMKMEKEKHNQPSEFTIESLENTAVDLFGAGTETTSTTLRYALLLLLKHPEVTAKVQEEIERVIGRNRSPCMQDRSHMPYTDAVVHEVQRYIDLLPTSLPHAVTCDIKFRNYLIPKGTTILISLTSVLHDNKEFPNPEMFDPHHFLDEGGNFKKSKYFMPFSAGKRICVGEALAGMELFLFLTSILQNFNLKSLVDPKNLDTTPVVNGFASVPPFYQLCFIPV
# UniProt Q12923: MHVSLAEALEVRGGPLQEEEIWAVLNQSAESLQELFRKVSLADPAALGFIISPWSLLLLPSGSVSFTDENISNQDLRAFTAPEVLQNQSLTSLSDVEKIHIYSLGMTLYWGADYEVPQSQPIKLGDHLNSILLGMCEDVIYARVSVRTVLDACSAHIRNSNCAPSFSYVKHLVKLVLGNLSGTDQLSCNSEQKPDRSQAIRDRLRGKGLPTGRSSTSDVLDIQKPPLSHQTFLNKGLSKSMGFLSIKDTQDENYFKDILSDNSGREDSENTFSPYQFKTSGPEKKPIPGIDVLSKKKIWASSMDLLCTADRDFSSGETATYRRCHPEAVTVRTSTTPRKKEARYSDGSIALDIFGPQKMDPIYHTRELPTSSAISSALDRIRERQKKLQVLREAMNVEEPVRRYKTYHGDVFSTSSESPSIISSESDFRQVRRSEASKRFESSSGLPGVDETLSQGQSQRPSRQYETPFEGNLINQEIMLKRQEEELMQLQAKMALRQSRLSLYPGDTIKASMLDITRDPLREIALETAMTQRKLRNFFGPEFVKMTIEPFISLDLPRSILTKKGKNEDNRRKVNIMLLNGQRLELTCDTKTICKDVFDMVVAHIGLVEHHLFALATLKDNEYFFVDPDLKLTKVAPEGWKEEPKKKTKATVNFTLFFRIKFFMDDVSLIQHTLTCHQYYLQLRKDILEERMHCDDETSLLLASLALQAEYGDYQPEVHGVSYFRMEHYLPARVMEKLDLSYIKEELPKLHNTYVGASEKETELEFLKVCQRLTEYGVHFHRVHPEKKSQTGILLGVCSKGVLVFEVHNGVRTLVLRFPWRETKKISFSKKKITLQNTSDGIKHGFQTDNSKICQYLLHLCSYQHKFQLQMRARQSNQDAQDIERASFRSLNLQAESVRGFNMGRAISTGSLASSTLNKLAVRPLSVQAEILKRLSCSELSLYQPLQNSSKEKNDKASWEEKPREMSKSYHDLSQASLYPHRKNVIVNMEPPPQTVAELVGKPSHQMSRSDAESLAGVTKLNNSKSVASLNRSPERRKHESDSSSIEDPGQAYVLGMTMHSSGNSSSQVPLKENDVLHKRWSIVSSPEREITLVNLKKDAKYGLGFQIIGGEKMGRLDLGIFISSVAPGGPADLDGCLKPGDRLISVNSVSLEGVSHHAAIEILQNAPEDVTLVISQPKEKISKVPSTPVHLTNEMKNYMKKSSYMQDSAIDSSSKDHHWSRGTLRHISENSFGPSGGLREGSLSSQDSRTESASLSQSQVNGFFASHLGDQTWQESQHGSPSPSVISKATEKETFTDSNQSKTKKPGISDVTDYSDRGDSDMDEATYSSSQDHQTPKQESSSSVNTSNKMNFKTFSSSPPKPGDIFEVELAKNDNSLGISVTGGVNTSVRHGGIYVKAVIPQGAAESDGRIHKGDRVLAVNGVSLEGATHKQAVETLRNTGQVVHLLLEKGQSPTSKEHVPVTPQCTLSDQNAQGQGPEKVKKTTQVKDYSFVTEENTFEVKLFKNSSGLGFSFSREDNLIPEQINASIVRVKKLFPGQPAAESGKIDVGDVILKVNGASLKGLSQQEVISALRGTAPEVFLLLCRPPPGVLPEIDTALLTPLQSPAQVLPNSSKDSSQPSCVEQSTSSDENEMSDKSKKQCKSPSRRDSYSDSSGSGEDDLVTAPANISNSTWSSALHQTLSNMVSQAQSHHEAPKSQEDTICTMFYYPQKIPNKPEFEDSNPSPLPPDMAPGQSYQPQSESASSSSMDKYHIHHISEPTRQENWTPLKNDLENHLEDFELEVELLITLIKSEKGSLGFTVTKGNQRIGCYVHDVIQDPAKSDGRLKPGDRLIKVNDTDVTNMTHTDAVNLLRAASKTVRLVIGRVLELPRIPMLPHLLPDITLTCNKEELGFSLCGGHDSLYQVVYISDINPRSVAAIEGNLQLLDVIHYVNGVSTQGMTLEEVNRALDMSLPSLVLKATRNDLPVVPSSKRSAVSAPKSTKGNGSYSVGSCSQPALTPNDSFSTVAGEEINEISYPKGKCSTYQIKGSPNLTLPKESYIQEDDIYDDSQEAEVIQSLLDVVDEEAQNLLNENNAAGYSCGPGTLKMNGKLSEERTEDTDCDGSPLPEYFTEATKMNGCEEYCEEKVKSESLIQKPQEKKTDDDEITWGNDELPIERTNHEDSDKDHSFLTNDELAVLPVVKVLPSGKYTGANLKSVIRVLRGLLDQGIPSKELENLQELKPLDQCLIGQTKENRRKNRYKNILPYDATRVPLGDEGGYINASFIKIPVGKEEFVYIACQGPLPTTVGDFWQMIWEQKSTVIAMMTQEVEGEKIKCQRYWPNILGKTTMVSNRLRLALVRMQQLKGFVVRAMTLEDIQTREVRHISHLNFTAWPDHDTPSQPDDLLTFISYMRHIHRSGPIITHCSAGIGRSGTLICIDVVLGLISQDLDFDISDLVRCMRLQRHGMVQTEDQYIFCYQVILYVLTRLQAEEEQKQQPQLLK
# UniProt P03372, whole entry, looked up: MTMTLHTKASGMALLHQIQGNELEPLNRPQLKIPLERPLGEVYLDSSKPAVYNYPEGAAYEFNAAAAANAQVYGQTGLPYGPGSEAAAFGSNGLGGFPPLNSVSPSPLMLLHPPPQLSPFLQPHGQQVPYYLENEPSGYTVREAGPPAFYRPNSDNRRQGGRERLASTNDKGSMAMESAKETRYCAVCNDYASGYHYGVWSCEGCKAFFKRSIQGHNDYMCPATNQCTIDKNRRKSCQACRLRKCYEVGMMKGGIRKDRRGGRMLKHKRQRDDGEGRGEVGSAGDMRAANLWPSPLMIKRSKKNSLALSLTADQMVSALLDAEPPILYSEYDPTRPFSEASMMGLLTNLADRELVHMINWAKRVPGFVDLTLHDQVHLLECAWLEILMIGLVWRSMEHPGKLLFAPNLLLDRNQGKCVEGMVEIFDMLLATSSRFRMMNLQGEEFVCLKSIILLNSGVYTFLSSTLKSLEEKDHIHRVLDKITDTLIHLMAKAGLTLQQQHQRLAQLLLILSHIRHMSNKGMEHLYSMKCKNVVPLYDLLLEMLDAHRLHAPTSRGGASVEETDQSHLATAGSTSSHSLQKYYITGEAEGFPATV
# The shares of active, inactive and inconclusive entries below differ from those in the screen. For some of these results: Where the call is inconclusive, the potency comes from a doubtful curve fit. The source made the active and inactive calls. How the source made its calls: active means hit-call score of the fitted dose curve at least 0.9, where 1 is the maximum; inconclusive means response in the unintended direction; inactive means score below 0.9.
# Columns and labels:
# [1] = biological target: human Janus Kinase 2 (Jak2), JAK2 (gene 3717) (UniProt O60674); experiment: NVS_ENZ_hJak2: NovaScreen (NVS) Enzymatic Assay for human Janus Kinase 2 (Jak2) (AID 2283169)
# Method in brief: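 Cell-free recombinant human JAK2 enzyme activity assay, fluorescence/electrophoretic mobility shift read 1 h after dosing. Screened in duplicate at 25 uM, then concentration-response up to 50 uM; activity as signal loss relative to DMSO.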
# [2] = biological target: Bile acid receptor (Homo sapiens) (UniProt Q96RI1); experiment: NVS_NR_hFXR_Agonist: NovaScreen (NVS) Nuclear Receptor Binding Assay for human Farnesoid X Receptor Agonism (FXR) (AID 2283347)
# Method in brief: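 Cell-free TR-FRET binding assay with extracted human FXR protein, agonist format, read 1 h after dosing. Primary screen at 25 uM single concentration in duplicate, actives retested in concentration series; gain of signal versus DMSO.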
# [3] = biological target: human Serotonin Transporter (SERT), SLC6A4 (gene 6532) (UniProt P31645); experiment: NVS_TR_hSERT: NovaScreen (NVS) Transporter Assay for human Serotonin Transporter (SERT) (AID 2283372)
# Method in brief: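 Radioligand binding to native SERT in human platelet membranes, read by filter-based scintillation counting 1 h after dosing. Primary screen in duplicate at 25 uM; actives followed up in concentration series; loss of signal versus DMSO baseline.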
# [4] = biological target: rat Serotonin Transporter (SERT), Slc6a4 (gene 25553) (UniProt P31652); experiment: NVS_TR_rSERT: NovaScreen (NVS) Transporter Assay for rat Serotonin Transporter (SERT) (AID 2283375)
# Method in brief: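 Rat forebrain membranes; radioligand displacement at SERT read by filter-based scintillation counting, 1 h after dosing. Screened in duplicate at 25 uM, actives then run in concentration series; loss of signal versus DMSO baseline.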
# [5] = test system: rat Monoamine Oxidase, MAO-A, Peripheral (MAOAP), gene 29253; experiment: NVS_ENZ_rMAOAP: NovaScreen (NVS) Enzymatic Assay for rat Monoamine Oxidase, MAO-A, Peripheral (MAOAP) (AID 2283237)
# Method in brief: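 Rat liver mitochondrial membranes served as the MAO-A source, with enzyme activity measured by radiometric scintillation counting 1.17 hours after dosing. Loss of signal was fitted against DMSO; primary screen used 25 uM in duplicate, follow-up used concentration series.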
# [6] = biological target: Peroxisome proliferator-activated receptor gamma (Homo sapiens) (UniProt P37231); experiment: ATG_hPPARg_XSP1: Attagene TRANS-FACTORIAL Multi-Species (XSP1) HepG2 Assay for human Peroxisome Proliferator-activated Receptor gamma (PPARg) (AID 2283800)
# Method in brief: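 HepG2 cells transiently transfected with GAL4-UAS reporter units carrying chimeric NR-Gal4 proteins; 3 nM 6-alpha-fluorotestosterone present. After 24 h dosing, reporter mRNA quantified by RT-PCR and capillary electrophoresis; gain of signal relative to DMSO.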
# [7] = biological target: human Protein Phosphatase, Mg2+/Mn2+ Dependent 1A (PPM1A), PPM1A (gene 5494) (UniProt P35813); experiment: NVS_ENZ_hPPM1A: NovaScreen (NVS) Enzymatic Assay for human Protein Phosphatase, Mg2+/Mn2+ Dependent 1A (PPM1A) (AID 2283198)
# Method in brief: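 Cell-free recombinant PPM1A phosphatase assay with fluorescent substrate, read 1 h after dosing by electrophoretic mobility shift. Chemicals screened in duplicate at 25 uM, then in concentration-response up to 50 uM; loss of activity versus DMSO.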
# [8] = test system: 5-hydroxytryptamine receptor 2C (pig); experiment: NVS_GPCR_p5HT2C: NovaScreen (NVS) G Protein-Coupled Receptor Assay for pig Serotonin, 5-Hydroxytryptamine Receptor 2C (5HT2C) (AID 2283288)
# Method in brief: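 Pig choroid plexus membranes; radioligand competitive binding, filter-based scintillation counting, read 1 h after dosing. Primary screen in duplicate at 25 uM; actives then run as concentration series; loss of signal versus DMSO baseline.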
# [9] = biological target: rat Adrenergic, Alpha 1, Non-selective Receptor (Adra1), Adra1a (gene 29412) (UniProt P43140); experiment: NVS_GPCR_rAdra1_NonSelective: NovaScreen (NVS) G Protein-Coupled Receptor Assay for rat Adrenergic, Alpha 1, Non-selective Receptor (Adra1) (AID 2283289)
# Method in brief: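 Rat forebrain membranes; radioligand displacement read by filter-based scintillation counting 1 h after dosing. Primary screen in duplicate at 25 uM; hits (e.g. ≥30% inhibition) rerun as concentration–response to 50 uM max. Fitted versus DMSO.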
# [10] = biological target: human CYP2C9, CYP2C9 (gene 1559) (UniProt P11712); experiment: NVS_ADME_hCYP2C9: NovaScreen (NVS) CYP450-related Enzyme Activity (ADME) Assay for human CYP2C9 (AID 2283108)
# Method in brief: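 Fluorescence readout of CYP2C9 activity (SF9-expressed human enzyme) at 0.75 h. The primary screen used 10 uM in duplicate, with concentration-response follow-up for actives; acetonitrile was the negative control.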
# [11] = biological target: human Caspase 5 (CASP5), CASP5 (gene 838) (UniProt P51878); experiment: NVS_ENZ_hCASP5: NovaScreen (NVS) Enzymatic Assay for human Caspase 5 (CASP5) (AID 2283137)
# Method in brief: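 Recombinant human caspase 5 expressed in E. coli, fluorogenic substrate, fluorescence read 2 h after dosing. Single-point 25 uM duplicate screen, then concentration-response to maximum 50 uM for actives; DMSO baseline.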
# [12] = biological target: Tyrosine-protein phosphatase non-receptor type 13 (Homo sapiens) (UniProt Q12923); experiment: NVS_ENZ_hPTPN13: NovaScreen (NVS) Enzymatic Assay for human Protein Tyrosine Phosphatase Non-receptor Type 13 (PTPN13) (AID 2283205)
# Method in brief: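 Cell-free assay of recombinant human PTPN13 with a fluorescent substrate, product separated by electrophoretic mobility shift and read 0.5 h after dosing. Primary screen at 25 uM in duplicate, then concentration-response up to 50 uM. Loss of signal fitted against DMSO.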
# [13] = CCTE_Mundy_HCI_iCellGluta_NOG_NeuriteLength: CCTE's Neurite Outgrowth Assay in iCellGluta cells for Neurite Length, Mundy Lab (AID 2284318)
# Method in brief: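 Automated high-content imaging of betaIII-tubulin (Alexa Fluor-488) and Hoechst-stained cells gave neurite length, normalized to the DMSO baseline.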
# [14] = biological target: Estrogen receptor (Homo sapiens) (UniProt P03372); experiment: CCTE_Deisenroth_AIME_384WELL_LUC_Inactive: CCTE's 384-well Estrogen Receptor Transactivation Assay without AIME metabolic competence (ERTA luciferase; metabolism negative), Deisenroth Lab (AID 2284038);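 further: VM7Luc4E2 breast cells given medium preincubated 2 h with S9-free microspheres; hits raise estrogen receptor luciferase signal so potencies reflect agonists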
# Method in brief: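 Metabolism-negative mode: chemicals (10-point, 0.002–200 uM) held 2 h with alginate-water microspheres, then conditioned medium applied to VM7Luc4E2 cells for 24 h. Luciferase induction referenced to 17beta-estradiol.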
# [15] = CCTE_Deisenroth_AIME_96WELL_CTox_Active: Cytotoxicity Assessment (CTOX) in CCTE's 96-well Estrogen Receptor Transactivation Assay with AIME metabolic competence (metabolism positive), Deisenroth Lab (AID 2284028)
# Method in brief: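 Chemicals (0.002–200 uM) were first incubated 2 h with alginate-immobilized phenobarbital/beta-naphthoflavone-induced male rat liver S9; conditioned medium then went onto VM7Luc4E2 cells for 24 h, with viability read by protease-substrate fluorescence, fitted bidirectionally.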
# [16] = CCTE_Deisenroth_AIME_96WELL_CTox_Inactive: Cytotoxicity Assessment (CTOX) in CCTE's 96-well Estrogen Receptor Transactivation Assay without AIME metabolic competence (metabolism negative), Deisenroth Lab (AID 2284029)
# Method in brief: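 Chemicals (0.002 - 200 uM, 10 points) incubated 2 h with alginate-water microspheres (no S9), then medium moved onto VM7Luc4E2 cells for 24 h. Viability by protease-substrate cleavage to fluorescent probe; bidirectional fitting.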
# [17] = test system: NCBI gene 24521; experiment: NVS_IC_rKATPCh: NovaScreen (NVS) Ion Channel Assay for rat Potassium Channel, ATP-Sensitive (KATPCh) (AID 2283319)
# Method in brief: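 Rat cortical membranes; radioligand binding at ATP-sensitive K channel site, filter-based scintillation counting 2 h after dosing. Single-point duplicate screen at 25 uM, hits rerun in concentration-response up to 50 uM; loss of signal versus DMSO.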
# [18] = VALA_TUBHUV_Antagonist_CellCount: Viability Assessment in the VALA Sciences human Umbilical Vein Endothelial Tubule Formation (TUBHUV) Antagonism Assay (AID 2284310)
# Method in brief: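 HUVEC co-cultured with HDF (1:3) 3 days in 10 ng/ml VEGF, then 3 days with compounds in VEGF medium. Fixed, nuclear stain and CD31 immunofluorescence, imaged; cell counts fitted versus 0.1% DMSO, loss of signal read as lower viability.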
# [19] = VALA_MIGHUV2_CellCount: Viability Assessment in the VALA Sciences human Umbilical Vein Endothelial Cell Migration (MIGHUV) Assay, Area of Scratch Wound after Recovery (AID 2284314)
# Method in brief: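 Scratch-wounded HUVEC monolayers received test chemical within 30 min, 6-point concentration response in triplicate, 0.1 % DMSO vehicle. After 24 h wound recovery, fixed cells were Hoechst-stained and nuclei imaged; loss of signal versus DMSO indicates reduced viability.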
# [20] = VALA_MIGHUV2_Bcatenin: VALA Sciences human Umbilical Vein Endothelial Cell Migration (MIGHUV) Assay, Nuclear Translocation of beta-Catenin after Recovery (AID 2284315)
# Method in brief: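 HUVEC (4000 cells/well) scratch-wounded, dosed within 30 min over 6 concentrations in triplicate, recovered 24 h. After fixation, Hoechst and anti-beta-catenin immunofluorescence imaged for nuclear CTNB. Gain of signal versus 0.1% DMSO.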
smiles,measurement,setting,value
O=c1ccc(=O)[nH][nH]1,outcome,[1],inactive
same,AC50,[2],inconclusive: 25 µM
same,AC50,[3],inconclusive: 0.527 µM
same,AC50,[4],inconclusive: 25 µM
COCC(C)N(C(=O)CCl)c1c(C)csc1C (stereo not given),AC50,[5],inconclusive: 0.0853 µM
C#CCC1=C(C)C(OC(=O)C2C(C=C(C)C)C2(C)C)CC1=O (stereo not given),AC50,[6],active: 27.2 µM
C1=Cc2cccc3cccc1c23,AC50,[5],inconclusive: 0.273 µM
O=Cc1ccco1,AC50,[7],inconclusive: 12.7 µM
same,AC50,[8],inconclusive: 25 µM
same,AC50,[9],inconclusive: 6.51 µM
Nc1ccc(Oc2ccc(N)cc2)cc1,AC50,[10],inconclusive: 0.0433 µM
Cc1cccc(N)c1N,outcome,[11],inactive
same,AC50,[8],active: 16.8 µM
CCOP(=S)(OCC)OC(Cl)C(Cl)(Cl)Cl (stereo not given),AC50,[12],inconclusive: 25 µM
same,outcome,[13],inactive
O=C1C(Cl)=C(Cl)C(=O)c2ccccc21,AC50,[14],inconclusive: 154 µM
c1ccc(N=Nc2ccccc2)cc1,AC50,[15],inconclusive: 100 µM
same,AC50,[16],inconclusive: 100 µM
CC1=NNC(=O)N(/N=C/c2cccnc2)C1,outcome,[17],inactive
same,AC50,[18],inconclusive: 0.00819 µM
same,AC50,[19],inconclusive: 0.0041 µM
same,AC50,[20],inconclusive: 0.0017 µM
N#Cc1c(Cl)cccc1Cl,AC50,[10],inconclusive: 0.0946 µM
Cc1cc(N=Nc2ccccc2C)ccc1N,AC50,[17],inconclusive: 0.131 µM
N#CSCSC#N,outcome,[2],inactive
CCCCOC(=O)c1ccccc1C(=O)OCc1ccccc1,outcome,[15],inactive
same,AC50,[16],inconclusive: 11.6 µM
CCN(CC)N=O,AC50,[12],inconclusive: 0.103 µM
CC(C)=CC1C(C(=O)OCN2C(=O)C3=C(CCCC3)C2=O)C1(C)C (stereo not given),outcome,[9],inactive
same,outcome,[3],inactive
O=P(Oc1ccccc1)(Oc1ccccc1)Oc1ccccc1,AC50,[4],inconclusive: 0.00242 µM
O=S(=O)(O)C(F)(F)C(F)(F)C(F)(F)C(F)(F)C(F)(F)C(F)(F)C(F)(F)C(F)(F)F,outcome,[7],inactive
same,AC50,[18],inconclusive: 0.097 µM
same,AC50,[19],inconclusive: 0.00133 µM
same,AC50,[20],inconclusive: 0.0334 µM
C=C(C)[C@H]1Cc2c(ccc3c2O[C@@H]2COc4cc(OC)c(OC)cc4[C@@H]2C3=O)O1,AC50,[1],inconclusive: 46.4 µM
CCOP(=S)(OCC)SCCSCC,AC50,[13],inconclusive: 0.00108 µM
COC(=O)N(C(=O)N1CO[C@@]2(C(=O)OC)Cc3cc(Cl)ccc3C2=N1)c1ccc(OC(F)(F)F)cc1,AC50,[14],inconclusive: 164 µM
O=C(Nc1ccccc1)Nc1ccnc(Cl)c1,outcome,[11],inactive
Clc1ccc(C(c2ccc(Cl)cc2)C(Cl)(Cl)Cl)cc1,AC50,[6],inconclusive: 100 µM

# Retrieved one by one from the entries so far (3):
smiles,measurement,setting,value
O=c1ccc(=O)[nH][nH]1,AC50,[4],inconclusive: 25 µM
same,outcome,[1],inactive
O=Cc1ccco1,AC50,[8],inconclusive: 25 µM
